From article PMC6954894
Results are given in words; binding and its absence hold for the method and conditions named. Binding seen in cells or lysates may run through a third protein. Some results given as binding are weak or reduced against the parent protein; the word gives no strength.

Protein sequences, listed by entry. Tags and fused reporters are not part of them. Residues count along the entry.
UniProt Q9QUK6, residues 26-835: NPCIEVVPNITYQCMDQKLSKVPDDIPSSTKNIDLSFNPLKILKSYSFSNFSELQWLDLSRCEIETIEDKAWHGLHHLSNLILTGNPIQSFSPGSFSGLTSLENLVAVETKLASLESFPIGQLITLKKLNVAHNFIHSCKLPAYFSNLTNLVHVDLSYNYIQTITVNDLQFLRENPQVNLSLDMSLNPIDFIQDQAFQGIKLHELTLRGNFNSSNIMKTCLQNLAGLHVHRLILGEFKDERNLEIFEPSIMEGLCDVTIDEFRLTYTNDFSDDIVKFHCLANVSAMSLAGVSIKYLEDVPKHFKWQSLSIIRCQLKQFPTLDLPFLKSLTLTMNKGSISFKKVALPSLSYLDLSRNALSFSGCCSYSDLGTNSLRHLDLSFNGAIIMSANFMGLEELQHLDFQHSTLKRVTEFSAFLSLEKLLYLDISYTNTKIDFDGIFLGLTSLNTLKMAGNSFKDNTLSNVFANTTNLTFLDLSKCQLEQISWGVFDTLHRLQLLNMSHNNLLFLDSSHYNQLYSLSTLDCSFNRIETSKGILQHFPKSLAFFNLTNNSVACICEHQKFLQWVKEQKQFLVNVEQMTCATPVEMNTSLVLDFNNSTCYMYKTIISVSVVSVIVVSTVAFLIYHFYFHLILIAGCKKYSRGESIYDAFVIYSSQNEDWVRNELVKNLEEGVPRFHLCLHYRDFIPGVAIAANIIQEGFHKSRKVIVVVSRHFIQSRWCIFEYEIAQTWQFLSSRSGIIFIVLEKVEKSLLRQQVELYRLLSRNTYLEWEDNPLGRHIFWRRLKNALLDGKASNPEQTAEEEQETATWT
UniProt Q08509: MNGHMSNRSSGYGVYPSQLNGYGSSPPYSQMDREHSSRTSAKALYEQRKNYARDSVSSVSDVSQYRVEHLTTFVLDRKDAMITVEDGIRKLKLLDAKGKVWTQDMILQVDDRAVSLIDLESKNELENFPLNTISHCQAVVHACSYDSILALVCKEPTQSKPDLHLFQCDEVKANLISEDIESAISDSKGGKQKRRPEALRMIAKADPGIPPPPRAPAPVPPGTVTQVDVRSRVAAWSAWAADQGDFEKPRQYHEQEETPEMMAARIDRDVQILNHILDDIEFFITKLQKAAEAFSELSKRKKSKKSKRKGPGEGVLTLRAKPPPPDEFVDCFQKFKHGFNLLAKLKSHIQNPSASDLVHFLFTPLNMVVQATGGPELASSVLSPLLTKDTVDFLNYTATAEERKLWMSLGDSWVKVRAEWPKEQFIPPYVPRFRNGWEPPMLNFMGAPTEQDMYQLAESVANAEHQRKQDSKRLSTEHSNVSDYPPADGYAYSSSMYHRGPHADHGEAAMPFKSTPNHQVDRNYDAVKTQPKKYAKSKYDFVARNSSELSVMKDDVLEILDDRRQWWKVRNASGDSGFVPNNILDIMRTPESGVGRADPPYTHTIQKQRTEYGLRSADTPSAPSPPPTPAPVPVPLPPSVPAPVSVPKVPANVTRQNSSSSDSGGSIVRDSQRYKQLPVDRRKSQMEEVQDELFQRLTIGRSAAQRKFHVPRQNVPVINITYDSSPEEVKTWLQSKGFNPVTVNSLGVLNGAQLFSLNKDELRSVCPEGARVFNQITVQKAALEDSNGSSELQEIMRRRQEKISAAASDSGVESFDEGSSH
UniProt Q60631: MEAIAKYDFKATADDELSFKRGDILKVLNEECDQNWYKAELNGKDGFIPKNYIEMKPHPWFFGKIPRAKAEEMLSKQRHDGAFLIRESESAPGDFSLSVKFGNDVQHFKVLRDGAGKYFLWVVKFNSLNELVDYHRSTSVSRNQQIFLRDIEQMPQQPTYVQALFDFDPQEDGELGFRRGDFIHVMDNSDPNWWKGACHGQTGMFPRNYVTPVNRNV

Tests used:
[1] = biological target: Toll-like receptor 4 (mouse (endogenous in BMDM)) (UniProt Q9QUK6); test: co-IP; endogenous proteins in BMDM; control, LPS (1 μg/mL) for 30 min, or LPS with PD168393 pretreatment for 30 min
[2] = biological target: Toll-like receptor 4 (mouse (endogenous in BMDM)) (UniProt Q9QUK6); test: co-IP; endogenous proteins, 6 h after LPS treatment

binding [1]	binding [2]	Substance
no binding		EGFR (from UniProt Q01279 25-1210) (receptor)
	binds	Epidermal growth factor receptor pathway substrate 8 (from UniProt Q08509 1-821)
	binds	growth-factor receptor-bound protein 2 (from UniProt Q60631 1-217)
